The source of these data is paper PMC5409829.

Test [1] concerns the target Atrophin (Drosophila (endogenous in S2 cells)). Kind of test: condition: only standard coIP conditions, lysate not pretreated with micrococcal nuclease; co-IP; endogenous proteins of S2 cells; standard coIP conditions, without pretreatment with micrococcal nuclease.
For test [2] the target is unchanged. Kind of test: co-IP; endogenous proteins of S2 cells (10^7 cells per IP); lysate pretreated with micrococcal nuclease (25°C, 5 min); IP with Atro antibody, blot with Trl antibody; IgG as control.

No constants are given. Whether binding was seen depends on the method and setting. Binding seen in cells or lysates may run through a third protein. For some assays here: Binding can be weak; no strength is given.

B1: Trithorax-like (protein, UniProt Q08605 1-582)
chain: MSLPMNSLYSLTWGDYGTSLVSAIQLLRCHGDLVDCTLAAGGRSFPAHKIVLCAASPFLLDLLKNTPCKHPVVMLAGVNANDLEALLEFVYRGEVSVDHAQLPSLLQAAQCLNIQGLAPQTVTKDDYTTHSIQLQHMIPQHHDQDQLIATIATAPQQTVHAQVVEDIHHQGQILQATTQTNAAGQQQTIVTTDAAKHDQAVIQAFLPARKRKPRVKKMSPTAPKISKVEGMDTIMGTPTSSHGSGSVQQVLGENGAEGQLLSSTPIIKSEGQKVETIVTMDPNNMIPVTSANAATGEITPAQGATGSSGGNTSGVLSTPKAKRAKHPPGTEKPRSRSQSEQPATCPICYAVIRQSRNLRRHLELRHFAKPGVKKEKKTTSGKKSSSGSSGSGSGALSSSGSVPQVQTVQSLHTLQGVQVKKDPDAQQQQQQQQQQQQQQQQQAMTVSGATGGQVQQQVQQVQQQVQQQQQQQQQQQQQLQHHQIIDSSGNITTATTSAQAAAAAQQQAAGQQQQLVAQSDGSESGAPLSIAQVQTLQGHQIIGNLNQVNITDFQQQQPQQQQQQQQQQQQQQQQQQQTQQTL
In the case of B1, the binding entry in test [1] was “no binding”; in test [2], “binds”.
